Numbering of substitutions follows the chain as printed. The list shows a part of the results. For some assays here: At the low end of the ranking the order means little. For some assays here: The source does not settle which construct or isoform was used.

What all share (conditions): yeast three-hybrid, YBZ-1, SC-Leu-His + 0.5 mM 3-AT, 4 days
In experiment [1] the target is T1, PUM1 PUF domain R5-PHQ R6-SWD C1007P + R1008H + N1043S + Y1044W + Q1047D (UniProt Q14671).
T1 sequence: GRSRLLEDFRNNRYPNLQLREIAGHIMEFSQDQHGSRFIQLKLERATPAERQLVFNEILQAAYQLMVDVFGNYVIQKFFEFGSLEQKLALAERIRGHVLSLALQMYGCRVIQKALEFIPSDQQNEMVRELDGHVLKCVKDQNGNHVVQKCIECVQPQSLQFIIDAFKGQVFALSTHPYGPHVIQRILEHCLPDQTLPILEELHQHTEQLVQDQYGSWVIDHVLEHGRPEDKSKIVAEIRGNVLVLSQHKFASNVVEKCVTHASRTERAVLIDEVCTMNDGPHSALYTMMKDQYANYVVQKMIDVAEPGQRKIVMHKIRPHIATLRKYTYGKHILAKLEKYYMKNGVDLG

The target of experiment [2] is T2, PUM1 PUF domain R5-PHQ R6-SWD C1007P + R1008H + N1043S + Y1044W + Q1047D (Homo sapiens) (UniProt Q14671).
T2 sequence: T1 sequence

The target in experiment [3] is T3, PUM1 PUF domain R6-SWD R7-NPG N1043S + Y1044W + Q1047D + S1079N + N1080P + E1083G (Homo sapiens) (UniProt Q14671).
T3 sequence: T1 sequence with P180C, H181R, S252N, N253P, E256G

The target of experiment [4] is T4, PUM1 PUF domain R3-THE R4-TFR R7-NPG C935T + R936H + Q939E + N971T + H972F + Q975R + S1079N + N1080P + E1083G (UniProt Q14671).
T4 sequence: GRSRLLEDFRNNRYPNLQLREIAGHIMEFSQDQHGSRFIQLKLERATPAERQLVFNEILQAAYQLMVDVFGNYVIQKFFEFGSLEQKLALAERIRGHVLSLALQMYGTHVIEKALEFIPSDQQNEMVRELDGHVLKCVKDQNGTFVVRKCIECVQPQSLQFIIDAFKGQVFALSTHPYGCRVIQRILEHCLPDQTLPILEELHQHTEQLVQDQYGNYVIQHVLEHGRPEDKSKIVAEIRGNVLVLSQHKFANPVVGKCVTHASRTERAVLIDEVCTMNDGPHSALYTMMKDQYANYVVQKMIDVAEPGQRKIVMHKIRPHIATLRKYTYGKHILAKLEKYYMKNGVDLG

“GGCUAGAACUAGUGGAUCCCCCGGCGCCCGGCGGCUCGAGCCCGGGUAAGUUGUAACCGUCUGCAUGCCGCCGGGCGCCAUGCCUGCAGGUCGACUCUAGAAAACAUG”: the binding signal (log2 enrichment (interaction score)) in experiment [1] was < -7.36.
“GGCUAGAACUAGUGGAUCCCCCGGCGCCCGGCGGCUCGAGCCCGGGUAAGCCGGAAGAGUCUGCAUGCCGCCGGGCGCCAUGCCUGCAGGUCGACUCUAGAAAACAUG”: the binding signal (log2 enrichment (interaction score)) in experiment [1] is < -7.85.
“GGCUAGAACUAGUGGAUCCCCCGGCGCCCGGCGGCUCGAGCCCGGGUAAGUUGUAAUUGUCUGCAUGCCGCCGGGCGCCAUGCCUGCAGGUCGACUCUAGAAAACAUG”: in experiment [1], the binding signal (log2 enrichment (interaction score)) was -7.04.
“GGCUAGAACUAGUGGAUCCCCCGGCGCCCGGCGGCUCGAGCCCGGGUAAGGGAAAAGUGUCUGCAUGCCGCCGGGCGCCAUGCCUGCAGGUCGACUCUAGAAAACAUG”: in experiment [1], the binding signal (log2 enrichment (interaction score)) was -7.49.
With “GGCUAGAACUAGUGGAUCCCCCGGCGCCCGGCGGCUCGAGCCCGGGUAAGAGCAAGCAGUCUGCAUGCCGCCGGGCGCCAUGCCUGCAGGUCGACUCUAGAAAACAUG”, the binding signal (log2 enrichment (interaction score)) in experiment [1] was < -7.13.
Take “GGCUAGAACUAGUGGAUCCCCCGGCGCCCGGCGGCUCGAGCCCGGGUAAGUGAGAAAGGUCUGCAUGCCGCCGGGCGCCAUGCCUGCAGGUCGACUCUAGAAAACAUG”: the binding signal (log2 enrichment (interaction score)) in experiment [1] was < -7.06.
Regarding “GGCUAGAACUAGUGGAUCCCCCGGCGCCCGGCGGCUCGAGCCCGGGUAAGUUGAAUUCGUCUGCAUGCCGCCGGGCGCCAUGCCUGCAGGUCGACUCUAGAAAACAUG”, the binding signal (log2 enrichment (interaction score)) in experiment [1] is < -7.27.
For the sequence “GGCUAGAACUAGUGGAUCCCCCGGCGCCCGGCGGCUCGAGCCCGGGUAAGUAGACACGGUCUGCAUGCCGCCGGGCGCCAUGCCUGCAGGUCGACUCUAGAAAACAUG”, the binding signal (log2 enrichment (interaction score)) in experiment [1] is -7.6.
For the sequence “GGCUAGAACUAGUGGAUCCCCCGGCGCCCGGCGGCUCGAGCCCGGGUAAGCUAAAAAAGUCUGCAUGCCGCCGGGCGCCAUGCCUGCAGGUCGACUCUAGAAAACAUG”, the binding signal (log2 enrichment (interaction score)) in experiment [1] was < -7.33.
Take “GGCUAGAACUAGUGGAUCCCCCGGCGCCCGGCGGCUCGAGCCCGGGUAAGCGUAAGAAGUCUGCAUGCCGCCGGGCGCCAUGCCUGCAGGUCGACUCUAGAAAACAUG”: in experiment [1], the binding signal (log2 enrichment (interaction score)) is -8.59.
With “GGCUAGAACUAGUGGAUCCCCCGGCGCCCGGCGGCUCGAGCCCGGGUAAGUACACGUAGUCUGCAUGCCGCCGGGCGCCAUGCCUGCAGGUCGACUCUAGAAAACAUG”, the binding signal (log2 enrichment (interaction score)) in experiment [1] was -7.31.
Take “GGCUAGAACUAGUGGAUCCCCCGGCGCCCGGCGGCUCGAGCCCGGGUAAGCGGAAAUAGUCUGCAUGCCGCCGGGCGCCAUGCCUGCAGGUCGACUCUAGAAAACAUG”: the binding signal (log2 enrichment (interaction score)) in experiment [2] was -1.04; in experiment [3] it was -1.58.
Take “GGCUAGAACUAGUGGAUCCCCCGGCGCCCGGCGGCUCGAGCCCGGGUAAGUGAACGUCGUCUGCAUGCCGCCGGGCGCCAUGCCUGCAGGUCGACUCUAGAAAACAUG”: the binding signal (log2 enrichment (interaction score)) in experiment [1] is -7.48.
Regarding “GGCUAGAACUAGUGGAUCCCCCGGCGCCCGGCGGCUCGAGCCCGGGUAAGAAUUGGACGUCUGCAUGCCGCCGGGCGCCAUGCCUGCAGGUCGACUCUAGAAAACAUG”, the binding signal (log2 enrichment (interaction score)) in experiment [4] was -2.27; in experiment [3] it was -1.54.
For “GGCUAGAACUAGUGGAUCCCCCGGCGCCCGGCGGCUCGAGCCCGGGUAAGUUGACUUCGUCUGCAUGCCGCCGGGCGCCAUGCCUGCAGGUCGACUCUAGAAAACAUG”, the binding signal (log2 enrichment (interaction score)) in experiment [1] is < -7.39.

The record behind these values is paper PMC8384837.
